We go through one compound from paper PMC11137182, “Selective and brain-penetrant ACSS2 inhibitors target breast cancer brain metastatic cells” (Frontiers in Pharmacology, 2024).

A short description of the series: Human liver microsome stability. A general note: Liver microsomes are vesicles of endoplasmic reticulum, rich in cytochrome P450 enzymes.

As usually defined, the CLint scaled is the capacity of the preparation to metabolise the compound, expressed as a volume cleared per time. Broadly, the microsomal CLint is the rate of metabolic loss divided by the concentration. With `CCCNCC(O)COc1ccccc1C(=O)CCc1ccccc1` (stereo not drawn) [Propafenone, reference compound], the “Remaining (T=60min)” value (human liver microsomes, 60 min) came out at 0.00396. Further, for the setting “human, liver microsomes”, the CLint scaled came out at 158 mL/min/kg and the microsomal CLint is 175 µL/min/mg.
